Experimental data taken from the M2OR odorant receptor database.
The entries are a selection whose mix differs from that of the whole data set. The calls were merged from several studies; some rest on single wells.

Assays:
Settings in all cases: stereoisomer not certain
[1] = biological target: T1, UniProt Q8VGJ3
T1 sequence (whole entry): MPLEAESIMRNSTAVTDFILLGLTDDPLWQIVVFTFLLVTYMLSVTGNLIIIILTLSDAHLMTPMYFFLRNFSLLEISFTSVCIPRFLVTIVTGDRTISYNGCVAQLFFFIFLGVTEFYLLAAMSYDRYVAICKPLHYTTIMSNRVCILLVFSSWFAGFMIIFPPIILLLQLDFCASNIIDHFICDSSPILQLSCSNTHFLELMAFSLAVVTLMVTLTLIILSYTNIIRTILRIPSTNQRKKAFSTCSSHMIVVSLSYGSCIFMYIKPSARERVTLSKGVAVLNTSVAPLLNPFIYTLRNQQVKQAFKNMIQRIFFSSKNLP
Summary of the method: (§1)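 Whether a receptor–molecule pair is responsive (active) rests on the original authors' judgment that its measured signal was statistically different from baseline. Pairs without that judgment are non-responsive (inactive). Sources used varied assay methods, commonly transient luciferase assays in mammalian cell lines.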

[2] = biological target: T2, UniProt Q8VGL0
T2 sequence (whole entry): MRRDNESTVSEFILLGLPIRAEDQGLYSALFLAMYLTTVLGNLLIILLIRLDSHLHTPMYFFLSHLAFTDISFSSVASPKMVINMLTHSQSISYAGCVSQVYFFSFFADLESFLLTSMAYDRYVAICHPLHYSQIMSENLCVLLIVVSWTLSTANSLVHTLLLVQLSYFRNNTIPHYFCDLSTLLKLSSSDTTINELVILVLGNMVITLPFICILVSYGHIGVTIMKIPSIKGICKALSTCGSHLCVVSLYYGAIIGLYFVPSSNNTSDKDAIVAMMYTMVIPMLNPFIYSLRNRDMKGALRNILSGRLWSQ
Summary of the method: as §1

[3] = biological target: T3, UniProt Q8VGU3
T3 sequence (whole entry): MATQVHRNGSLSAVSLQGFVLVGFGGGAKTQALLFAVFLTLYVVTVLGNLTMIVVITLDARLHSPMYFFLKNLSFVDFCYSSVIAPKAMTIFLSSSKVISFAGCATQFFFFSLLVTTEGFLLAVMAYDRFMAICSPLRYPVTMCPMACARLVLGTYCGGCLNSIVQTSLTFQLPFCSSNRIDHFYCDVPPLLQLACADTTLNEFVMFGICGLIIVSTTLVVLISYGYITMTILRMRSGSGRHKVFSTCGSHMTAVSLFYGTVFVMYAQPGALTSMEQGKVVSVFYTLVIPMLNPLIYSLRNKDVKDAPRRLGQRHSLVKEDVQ
Summary of the method: as §1

[4] = biological target: T4, UniProt Q8VGV7
T4 sequence (whole entry): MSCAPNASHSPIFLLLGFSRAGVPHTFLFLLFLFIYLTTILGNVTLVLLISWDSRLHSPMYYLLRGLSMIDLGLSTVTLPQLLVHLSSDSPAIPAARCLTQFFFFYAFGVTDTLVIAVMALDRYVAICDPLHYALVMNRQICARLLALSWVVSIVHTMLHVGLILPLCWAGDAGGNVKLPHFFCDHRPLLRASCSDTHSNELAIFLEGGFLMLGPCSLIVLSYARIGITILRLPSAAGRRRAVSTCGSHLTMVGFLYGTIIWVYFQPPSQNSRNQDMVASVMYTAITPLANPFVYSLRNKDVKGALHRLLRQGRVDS
Summary of the method: as §1

[5] = biological target: T5, UniProt Q8VGX3
T5 sequence (whole entry): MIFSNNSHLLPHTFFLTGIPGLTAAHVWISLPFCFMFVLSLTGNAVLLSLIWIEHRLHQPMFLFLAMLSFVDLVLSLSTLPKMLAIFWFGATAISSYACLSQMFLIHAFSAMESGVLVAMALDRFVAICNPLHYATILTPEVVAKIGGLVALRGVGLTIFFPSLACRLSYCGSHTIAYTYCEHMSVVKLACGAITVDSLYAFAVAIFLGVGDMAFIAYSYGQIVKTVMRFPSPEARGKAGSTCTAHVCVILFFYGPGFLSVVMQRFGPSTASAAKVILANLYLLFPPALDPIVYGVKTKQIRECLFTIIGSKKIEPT
Summary of the method: as §1

[6] = biological target: T6, UniProt Q8VGX5
T6 sequence (whole entry): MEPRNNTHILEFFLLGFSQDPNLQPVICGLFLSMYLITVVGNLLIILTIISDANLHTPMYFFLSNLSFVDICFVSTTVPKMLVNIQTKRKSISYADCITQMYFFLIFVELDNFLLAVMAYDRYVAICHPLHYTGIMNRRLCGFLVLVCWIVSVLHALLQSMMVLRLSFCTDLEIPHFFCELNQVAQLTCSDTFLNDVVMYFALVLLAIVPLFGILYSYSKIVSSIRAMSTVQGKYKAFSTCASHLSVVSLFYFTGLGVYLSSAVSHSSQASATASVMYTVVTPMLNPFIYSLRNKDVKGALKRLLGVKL
Summary of the method: as §1

[7] = biological target: T7, UniProt Q8VGZ2
T7 sequence (whole entry): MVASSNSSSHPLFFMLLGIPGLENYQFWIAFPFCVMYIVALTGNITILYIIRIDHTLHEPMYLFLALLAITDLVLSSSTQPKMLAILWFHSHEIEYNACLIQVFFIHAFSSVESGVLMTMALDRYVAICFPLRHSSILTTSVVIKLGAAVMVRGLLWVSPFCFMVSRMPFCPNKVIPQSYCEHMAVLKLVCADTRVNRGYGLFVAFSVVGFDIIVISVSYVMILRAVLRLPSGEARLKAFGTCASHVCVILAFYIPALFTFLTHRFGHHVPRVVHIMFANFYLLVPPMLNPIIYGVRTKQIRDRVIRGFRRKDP
Summary of the method: as §1

Measured: odorant receptor agonist call;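 further: active if original authors judged signal statistically different from baseline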

C=CCc1ccc(OC)c(OC)c1
active: [6]
inactive: all other assays above
